Some of the results follow.
Tests used:
Assay in all cases: NMR binding call after quantification (hit when 2 of 3 NMR criteria are met) (binary (1 = binding, 0 = not binding)); higher = binding
Details in all cases: RNA concentration 10 µM; fragment concentration 200 µM; 293 K
[1] = test system: SARS-CoV-2 5'-UTR RNA
[2] = test system: SARS-CoV-2 5_SL1 RNA
[3] = test system: SARS-CoV-2 5_SL1234 RNA
[4] = test system: SARS-CoV-2 5_SL2+3 RNA
[5] = test system: SARS-CoV-2 5_SL4 RNA
[6] = test system: SARS-CoV-2 5_SL5 RNA
[7] = test system: SARS-CoV-2 5_SL5a RNA
[8] = test system: SARS-CoV-2 5_SL5b+c RNA
[9] = test system: SARS-CoV-2 5_SL5stem RNA
[10] = test system: SARS-CoV-2 5_SL6 RNA

Structure (SMILES)	NMR binding call [1]	NMR binding call [2]	NMR binding call [3]	NMR binding call [4]	NMR binding call [5]	NMR binding call [6]	NMR binding call [7]	NMR binding call [8]	NMR binding call [9]	NMR binding call [10]
CCOC(=O)c1ccoc1	0	0	0	0	0	0	0	0	0	0
Cc1nn(C)c(C)c1CN1CCNCC1	0	0	0	0	0	0	0	0	0	0
NC(=O)c1ccc(OCc2ccccc2)cc1	0	0	0	0	0	0	0	0	0	0
CCN(C)C(=O)c1cccc(N)c1	0	0	0	0	0	0	0	0	0	0
CS(=O)(=O)Cc1nc2ccccc2[nH]1	0	0	0	0	0	0	0	0	0	0
CS(=O)(=O)NCCc1ccccc1	0	0	0	0	0	0	0	0	0	0
COC(=O)c1ccncc1	0	0	0	0	0	0	0	0	0	0
CC(C)N1CCCC(CO)C1 (stereo not given)	0	0	0	0	0	0	0	0	0	0
COC(=O)c1sccc1NC(=O)C1CC1	0	0	0	0	0	0	0	0	0	0
Cc1nc(C(=O)N2CCCC2)c(C)s1	0	0	0	0	0	0	0	0	0	0
CCNC(=O)c1ccc(NS(C)(=O)=O)cc1	0	0	0	0	0	0	0	0	0	0
Cc1nn(Cc2c(C)noc2C)c(=O)s1	0	0	0	0	0	0	0	0	0	0
CN1CCCC1CO (stereo not given)	0	0	0	0	0	0	0	0	0	0
CC1CC1C(=O)NCCc1ccc(Cl)cc1 (stereo not given)	0	0	0	0	0	0	0	0	0	0
CC(O)CNCc1ccc2c(c1)OCO2 (stereo not given)	0	0	0	0	0	0	0	0	0	0
Cc1ncsc1C(=O)N1CCNC(=O)C1	0	0	0	0	0	0	0	0	0	0
CNC(=O)c1cccc(C(=O)O)n1	0	0	0	0	0	0	0	0	0	0
Fc1ccccc1CNc1cn[nH]c1	0	0	0	0	0	0	0	0	0	0
Cc1cc(NC(=O)CCC2CCCCC2)no1	0	0	0	0	0	0	0	0	0	0
CC(=O)Nc1cccc(F)c1C(=O)O	0	0	0	0	0	0	0	0	0	0
CCC(=O)Nc1nnc(C2CCCCC2)s1	0	0	0	0	0	0	0	0	0	0
NC(=O)c1ccc(NC(=O)c2ccccc2)cc1	0	0	0	0	0	0	0	0	0	0
O=C(NCc1ccccc1)c1cccc(F)c1	0	0	0	0	0	0	0	0	0	0
c1coc(CNc2nc3ccccc3[nH]2)c1	1	0	0	0	0	0	0	0	0	0

Full records, quoted from the list. Values in the order: NMR binding call [1] | NMR binding call [2] | NMR binding call [3] | NMR binding call [4] | NMR binding call [5] | NMR binding call [6] | NMR binding call [7] | NMR binding call [8] | NMR binding call [9] | NMR binding call [10]
`Cc1nc(C(=O)N2CCCC2)c(C)s1` in the list: 0 | 0 | 0 | 0 | 0 | 0 | 0 | 0 | 0 | 0
`c1coc(CNc2nc3ccccc3[nH]2)c1` in the list: 1 | 0 | 0 | 0 | 0 | 0 | 0 | 0 | 0 | 0

(listing goes on)

Structure (SMILES)	NMR binding call [1]	NMR binding call [2]	NMR binding call [3]	NMR binding call [4]	NMR binding call [5]	NMR binding call [6]	NMR binding call [7]	NMR binding call [8]	NMR binding call [9]	NMR binding call [10]
C(#Cc1ccccc1)CN1CCCCC1	0	0	0	0	0	0	0	0	0	0
CN(C(=O)C1CC1(C)C)c1cccnc1 (stereo not given)	0	0	0	0	0	0	0	0	0	0
Cc1cc(F)ccc1CS(N)(=O)=O	0	0	0	0	0	0	0	0	0	0
OC1CN(C(c2ccccc2)c2ccccc2)C1	0	0	0	0	0	0	0	0	0	0
CC1CCN(C(=O)CC(F)(F)F)CC1	0	0	0	0	0	0	0	0	0	0
Cc1noc(C)c1CC(C)C(=O)N(C)C (stereo not given)	0	0	0	0	0	0	0	0	0	0
CCn1cc(CNC(=O)c2cccnc2)cn1	0	0	0	0	0	0	0	0	0	0
Cc1nc(CN2CCC(CN)CC2)cs1	0	0	0	0	0	0	0	0	0	0
CCNc1ccc(C#N)cn1	0	0	0	0	0	0	0	0	0	0
NC(=O)C(O)C1CCOCC1 (stereo not given)	0	0	0	0	0	0	0	0	0	0
COc1ccc(C(=O)NCC(N)=O)cc1	0	0	0	0	0	0	0	0	0	0
CCn1nccc1CNC.Cl.Cl	0	0	0	0	0	0	0	0	0	0
COc1ccc(NC2=NCCN2)cc1	0	0	0	0	0	0	0	0	0	0
COC(=O)c1cccc(NS(C)(=O)=O)c1	0	0	0	0	0	0	0	0	0	0
Fc1ccccc1CNC1CCOCC1	0	0	0	0	0	0	0	0	0	0
O=C(Cc1ccc(F)cc1)NC1CCCCC1	0	0	0	0	0	0	0	0	0	0
Cc1cc(N(C)C2CC(O)C2)nc(C)n1 (stereo not given)	0	0	0	0	0	0	0	0	0	0
Cc1ccc(C(=O)Nc2nnc[nH]2)cc1C	0	0	0	0	0	0	0	0	0	0
O=C(Nc1ccc(F)cc1)Nc1ccc(F)cc1	0	0	0	0	0	0	0	0	0	0
Fc1ccc(CNCC2CCCO2)cc1 (stereo not given)	0	0	0	0	0	0	0	0	0	0
CC(C)C(=O)NCC1CCCNC1 (stereo not given)	0	0	0	0	0	0	0	0	0	0
Cn1nccc1C(=O)NCc1cccs1	0	0	0	0	0	0	0	0	0	0
COc1ccc(NCc2ccc(F)cc2)cc1	0	0	0	0	0	0	0	0	0	0
CCOc1ccc(NC(=O)NC(C)(C)C)cc1	0	0	0	0	0	0	0	0	0	0
